# In PMC4877712:
# Amino acid sequences for entries named in this document (tags omitted). A change or cut given only in a name is not applied to a line headed by its entry.
# UniProt P26718: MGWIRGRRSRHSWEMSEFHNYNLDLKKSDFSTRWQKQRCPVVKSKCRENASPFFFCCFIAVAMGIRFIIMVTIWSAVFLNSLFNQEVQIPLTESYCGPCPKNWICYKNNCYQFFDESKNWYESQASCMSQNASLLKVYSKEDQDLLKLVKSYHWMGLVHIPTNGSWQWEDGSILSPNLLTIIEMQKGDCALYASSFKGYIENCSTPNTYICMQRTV
# These are yes or no findings as the source states them, for the method shown. Binding can be weak; no strength is given.
# Molecular target: NKG2D (UniProt P26718)
# Test: SEC; ligand and NKG2D mixed at molar ratio 1:2 (0.8 nmol MICA + 1.6 nmol NKG2D; ULBP3 likewise), Superdex 75 10/300 on AktaFPLC; elution profile of the mixture compared with ligand alone and NKG2D alone; both purified
binder,measurement,value
"MICA (ligand, UniProt Q29983 24-307) EPHSLRYNLTVLSWDGSVQSGFLTEVHLDGQPFLRCDRQKCRAKPQGQWAEDVLGNKTWDRETRDLTGNGKDLRMTLAHIKDQKEGLHSLQEIRVCEIHEDNSTRSSQHFYYDGELFLSQNLETKEWTMPQSSRAQTLAMNVRNFLKEDAMKTKTHYHAMHADCLQELRRYLKSGVVLRRTVPPMVNVTRSEASEGNITVTCRASGFYPWNITLSWRQDGVSLSHDTQQWGDVLPDGNGTYQTWVATRICQGEEQRFTCYMEHSGNHSTHPVPSGKVLVLQSHW",binding,binds
